# Results reported in PubChem BioAssay AID445 (National Center for Advancing Translational Sciences (NCATS), 2006).
# Where “and” joins values, the source holds several entries; their conditions need not be identical. Equal entries are not always repeated. The list shows a part of the results. These are further read-outs of the screen, such as a control signal, another cell line or another target. No call is given for them. The list favours compounds with an active or inconclusive main result. Potencies come from curve fits of mixed quality, noted in brackets.
# Assay: IkB Signaling
# Details: ABC-DLBCL IkBa-CBG/CBR dual luciferase ratio (green luciferase fused to IkBa over red control in OCI-Ly3 lymphoma cells), 4 h
# Summary of the method: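 In this assay, an IκBα–CBG68 fusion accumulates when IKK-driven degradation is blocked; native CBR normalizes for cell number. OCI-Ly3 cells were treated 4 h with compound and doxycycline, then green and red light read after Chroma-Glo addition.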
# [1] = measured here: control luc red channel unless noted
compound,measurement,setting,value
CCc1ccc(C2c3c(-c4cc(C)ccc4O)n[nH]c3C(=O)N2Cc2cccnc2)cc1 (configuration not stated),AC50,[1],"15.8 µM [falling, partial curve]"
Cn1cc(CCCC(=O)NCc2ccccc2Cl)c2ccccc21,AC50,[1],"0.0794 µM [falling, full curve, poor fit]"
CCOc1ccc(OCC)c(Nc2cc(C)nc3nc(-c4ccco4)nn23)c1,AC50,[1],"3.98 µM [falling, partial curve]"
CNC(=O)c1[nH]cnc1C(=O)Nc1cccc(OC)c1,AC50,[1],"10 µM [falling, partial curve]"
O=C(c1ccc([N+](=O)[O-])cc1)N1CCN(c2ccc(Nc3ccccc3)nn2)CC1,AC50,[1],"15.8 µM [falling, partial curve]"
Cn1cc(C(=O)c2ccc(F)cc2)cc1-c1nc2ccccc2n1C,AC50,measured here: IkB-luc green channel,"12.6 µM [falling, partial curve]"
same,AC50,measured here: control luc red channel,"10 µM [falling, partial curve]"
COc1cccc2c1Oc1ncccc1N(C(=O)Nc1cccc(Cl)c1)C2,AC50,[1],"25.1 µM [falling, partial curve]"
COc1ccc(N(C)S(=O)(=O)c2cccc3cccnc23)c(OC)c1,AC50,[1],"25.1 µM [falling, partial curve]"
Cn1nc(-c2ccc(C(=O)Nc3cccc(C(F)(F)F)c3)cc2)c2ccccc2c1=O,AC50,[1],"25.1 µM [falling, partial curve]"
CCn1c(=O)n(CC)c2cc(S(=O)(=O)N3CCc4ccccc43)ccc21,AC50,[1],"15.8 µM [falling, partial curve]"
CCOc1ccc(NS(=O)(=O)c2ccc3[nH]cc(C(=O)NCc4ccccc4)c(=O)c3c2)cc1,AC50,[1],"3.16 µM [falling, full curve]"
Cc1cccc(CNC(=O)c2ccc3c(c2)N(C)C(=O)C2CCCCN32)c1 (configuration not stated),AC50,[1],"7.94 µM [falling, full curve]"
COc1cccc(NC(=O)CN2C(=O)C3(OCCCO3)c3ccccc32)c1,AC50,[1],"12.6 µM [falling, partial curve]"
COc1ccc(Cn2ccc3nc(C)c(C(=O)Nc4ccc(OC(F)(F)F)cc4)cc3c2=O)cc1,AC50,[1],"1.58 µM [falling, full curve, poor fit]"
CCCCC(=O)OC1=C(C(=O)c2ccccc2)N(CC)S(=O)(=O)c2ccccc21,AC50,[1],"12.6 µM [falling, partial curve]"
O=C(Nc1cccc(-c2nc3ccccc3o2)c1)c1cccc(Br)c1,AC50,[1],"0.0794 µM [falling, full curve]"
C=CCN1C(c2ccc(OCC)cc2)=CS/C1=C(\C#N)c1nnc2n1CCCCC2,AC50,[1],"25.1 µM [falling, partial curve]"
COc1ccccc1OCc1nnc(SCC(=O)c2cc(Cl)ccc2OC)o1,AC50,[1],"39.8 µM [falling, partial curve]"
CC(C)n1c(C(=O)OCC(=O)NCc2ccc3c(c2)OCO3)cc2occc21,AC50,[1],"39.8 µM [falling, single point]"
CCOC(=O)c1c(Nc2cc(C)cc(C)c2)nnc(-c2ccccc2)c1-c1ccccc1,AC50,[1],"12.6 µM [falling, partial curve]"
Cc1cc(NC(=O)Cn2nnc3sc4c(c3c2=O)CCC(C(C)(C)C)C4)no1 (configuration not stated),AC50,[1],"31.6 µM [falling, single point]"
CC1CCN(S(=O)(=O)c2ccc3nc(Nc4ccc(C#N)cc4)ccc3c2)CC1,AC50,[1],"20 µM [falling, single point]"
O=C(O)c1cc([N+](=O)[O-])ccc1NCCCc1ccccc1,AC50,[1],"631 nM [falling, full curve] and 126 nM [falling, full curve]"
O=C(NCC(c1cccnc1)N1CCc2ccccc2C1)C(=O)Nc1ccccc1 (configuration not stated),AC50,[1],"3.16 µM [falling, partial curve, poor fit]"
COc1ccccc1CNS(=O)(=O)c1ccc(F)c(C(=O)Nc2cc(Cl)ccc2OC)c1,AC50,[1],"10 µM [falling, partial curve]"
COc1ccc(NC(=O)C2CCCN(S(=O)(=O)c3cccs3)C2)cc1 (configuration not stated),AC50,[1],"20 µM [falling, partial curve]"
CCN1CCN(C(c2ccccc2)c2c(O)cc(C)n(Cc3ccco3)c2=O)CC1 (configuration not stated),AC50,[1],"25.1 µM [falling, partial curve, poor fit]"
N#C/C(=C/c1ccc(Cl)cc1Cl)c1nc2ccccc2c(=O)[nH]1,AC50,[1],"0.316 µM [falling, full curve]"
COC(=O)c1c(N)n(-c2ccc(OC)c(Cl)c2)c2nc3ccccc3nc12,AC50,[1],"0.398 µM [rising, full curve]"
O=C(Nc1ccccc1F)c1ccc(-c2ccccc2)s1,AC50,[1],"0.00316 µM [falling, full curve]"
CCN(CC)C(=O)c1sc2c(c1C)c(=O)n(-c1ccc(Cl)c(Cl)c1)c(=O)n2CC(=O)Nc1cccc(OC)c1,AC50,[1],"10 µM [falling, partial curve]"

# For convenience, part of the list above.
compound,measurement,setting,value
C=CCN1C(c2ccc(OCC)cc2)=CS/C1=C(\C#N)c1nnc2n1CCCCC2,AC50,[1],"25.1 µM [falling, partial curve]"
COc1ccccc1OCc1nnc(SCC(=O)c2cc(Cl)ccc2OC)o1,AC50,[1],"39.8 µM [falling, partial curve]"
CC(C)n1c(C(=O)OCC(=O)NCc2ccc3c(c2)OCO3)cc2occc21,AC50,[1],"39.8 µM [falling, single point]"
CCOC(=O)c1c(Nc2cc(C)cc(C)c2)nnc(-c2ccccc2)c1-c1ccccc1,AC50,[1],"12.6 µM [falling, partial curve]"
Cc1cc(NC(=O)Cn2nnc3sc4c(c3c2=O)CCC(C(C)(C)C)C4)no1 (configuration not stated),AC50,[1],"31.6 µM [falling, single point]"
CC1CCN(S(=O)(=O)c2ccc3nc(Nc4ccc(C#N)cc4)ccc3c2)CC1,AC50,[1],"20 µM [falling, single point]"
O=C(O)c1cc([N+](=O)[O-])ccc1NCCCc1ccccc1,AC50,[1],"631 nM [falling, full curve] and 126 nM [falling, full curve]"
O=C(NCC(c1cccnc1)N1CCc2ccccc2C1)C(=O)Nc1ccccc1 (configuration not stated),AC50,[1],"3.16 µM [falling, partial curve, poor fit]"
